# The supplement of paper PMC8728848
# The other results are listed elsewhere or left out.
# B1: SLLPI (Mus musculus), Q9D9X8 (protein)
# chain: MGICMSMYTQVLVPVDADGDHHILWSRFYERWGSCFNPCAGLVNCLPPHSSALYLCHRMEARSRAPRRQLCPPGITWLALAYLLSCLLASSKAKVFSRCELAKEMHDFGLDGYRGYNLADWVCLAYYTSGFNTNAVDHEADGSTNNGIFQISSRRWCRTLASNGPNLCRIYCTDLLNNDLKDSIVCAMKIVQEPLGLGYWEAWRHHCQGRDLSDWVDGCDF
# How the values were obtained:
# Experiment in all cases: glycan array binding signal (z-score within array); higher = stronger binding
# Settings in all cases: glycan notation: IUPAC condensed, linker removed
# Fuc(a1-2)Gal = target: Fuc(a1-2)Gal
# Procedure, shortened: (§1)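 From the Consortium for Functional Glycomics database, 3228 arrays were curated, keeping only those whose protein sequence was available. Binding is given as a within-array Z-score averaged across arrays sharing a protein sequence and across linkers. Negative Z-scores can be read as non-binding.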
# Fuc(a1-2)Gal(b1-3)GalNAc = target: Fuc(a1-2)Gal(b1-3)GalNAc
# Procedure, shortened: as §1
# [1] = target: Fuc(a1-2)Gal(b1-3)GalNAc(b1-3)Gal
# Procedure, shortened: as §1
# [2] = target: Fuc(a1-2)Gal(b1-3)GalNAc(b1-3)Gal(a1-4)Gal(b1-4)Glc
# Procedure, shortened: as §1
# [3] = target: Fuc(a1-2)Gal(b1-3)GalNAc(b1-4)[Neu5Ac(a2-3)]Gal(b1-4)Glc
# Procedure, shortened: as §1
# Fuc(a1-2)Gal(b1-3)GlcNAc = target: Fuc(a1-2)Gal(b1-3)GlcNAc
# Procedure, shortened: as §1
# [4] = target: Fuc(a1-2)Gal(b1-3)GlcNAc(b1-3)Gal(b1-4)Glc
# Procedure, shortened: as §1
# [5] = target: Fuc(a1-2)Gal(b1-3)[Fuc(a1-4)]GlcNAc
# Procedure, shortened: as §1
# Fuc(a1-2)Gal(b1-4)Glc = target: Fuc(a1-2)Gal(b1-4)Glc
# Procedure, shortened: as §1
# Fuc(a1-2)Gal(b1-4)Glc6S = target: Fuc(a1-2)Gal(b1-4)Glc6S
# Procedure, shortened: as §1
# Fuc(a1-2)Gal(b1-4)GlcNAc = target: Fuc(a1-2)Gal(b1-4)GlcNAc
# Procedure, shortened: as §1
# [6] = target: Fuc(a1-2)Gal(b1-4)GlcNAc(b1-3)Gal(b1-4)GlcNAc
# Procedure, shortened: as §1
# [7] = target: Fuc(a1-2)Gal(b1-4)GlcNAc(b1-3)Gal(b1-4)GlcNAc(b1-3)Gal(b1-4)GlcNAc
# Procedure, shortened: as §1
# [8] = target: Fuc(a1-2)Gal(b1-4)GlcNAc6S
# Procedure, shortened: as §1
# [9] = target: Fuc(a1-2)Gal(b1-4)[Fuc(a1-3)]GlcNAc
# Procedure, shortened: as §1
# [10] = target: Fuc(a1-2)Gal(b1-4)[Fuc(a1-3)]GlcNAc(b1-3)Gal(b1-4)[Fuc(a1-3)]GlcNAc
# Procedure, shortened: as §1
# [11] = target: Fuc(a1-2)Gal(b1-4)[Fuc(a1-3)]GlcNAc(b1-3)Gal(b1-4)[Fuc(a1-3)]GlcNAc(b1-3)Gal(b1-4)[Fuc(a1-3)]GlcNAc
# Procedure, shortened: as §1
# Fuc(a1-2)Gal6S(b1-4)Glc = target: Fuc(a1-2)Gal6S(b1-4)Glc
# Procedure, shortened: as §1
# [12] = target: Fuc(a1-2)Gal6S(b1-4)Glc6S
# Procedure, shortened: as §1
# [13] = target: Fuc(a1-2)Gal6S(b1-4)GlcNAc
# Procedure, shortened: as §1
# Fuc(a1-2)[Gal(a1-3)]Gal = target: Fuc(a1-2)[Gal(a1-3)]Gal
# Procedure, shortened: as §1
# [14] = target: Fuc(a1-2)[Gal(a1-3)]Gal(b1-3)GlcNAc
# Procedure, shortened: as §1
# [15] = target: Fuc(a1-2)[Gal(a1-3)]Gal(b1-4)Glc
# Procedure, shortened: as §1
# [16] = target: Fuc(a1-2)[Gal(a1-3)]Gal(b1-4)GlcNAc
# Procedure, shortened: as §1
# [17] = target: Fuc(a1-2)[Gal(a1-3)]Gal(b1-4)[Fuc(a1-3)]GlcNAc
# Procedure, shortened: as §1
# [18] = target: Fuc(a1-2)[Gal(a1-4)]Gal(b1-4)GlcNAc
# Procedure, shortened: as §1
# [19] = target: Fuc(a1-2)[GalNAc(a1-3)]Gal
# Procedure, shortened: as §1
# [20] = target: Fuc(a1-2)[GalNAc(a1-3)]Gal(b1-3)GlcNAc
# Procedure, shortened: as §1
# [21] = target: Fuc(a1-2)[GalNAc(a1-3)]Gal(b1-4)Glc
# Procedure, shortened: as §1
# [22] = target: Fuc(a1-2)[GalNAc(a1-3)]Gal(b1-4)GlcNAc
# Procedure, shortened: as §1
binder,measurement,setting,value
B1,glycan array binding signal (z-score),Fuc(a1-2)Gal,1.1
same,glycan array binding signal (z-score),Fuc(a1-2)Gal(b1-3)GalNAc,-1.15
same,glycan array binding signal (z-score),[1],0.084
same,glycan array binding signal (z-score),[2],-0.578
same,glycan array binding signal (z-score),[3],0.39
same,glycan array binding signal (z-score),Fuc(a1-2)Gal(b1-3)GlcNAc,-0.59
same,glycan array binding signal (z-score),[4],-0.98
same,glycan array binding signal (z-score),[5],1.07
same,glycan array binding signal (z-score),Fuc(a1-2)Gal(b1-4)Glc,-0.25
same,glycan array binding signal (z-score),Fuc(a1-2)Gal(b1-4)Glc6S,-0.22
same,glycan array binding signal (z-score),Fuc(a1-2)Gal(b1-4)GlcNAc,-0.019
same,glycan array binding signal (z-score),[6],-0.448
same,glycan array binding signal (z-score),[7],-0.164
same,glycan array binding signal (z-score),[8],0.445
same,glycan array binding signal (z-score),[9],-0.556
same,glycan array binding signal (z-score),[10],-0.528
same,glycan array binding signal (z-score),[11],-0.384
same,glycan array binding signal (z-score),Fuc(a1-2)Gal6S(b1-4)Glc,1.28
same,glycan array binding signal (z-score),[12],1.85
same,glycan array binding signal (z-score),[13],-0.384
same,glycan array binding signal (z-score),Fuc(a1-2)[Gal(a1-3)]Gal,0.167
same,glycan array binding signal (z-score),[14],-0.779
same,glycan array binding signal (z-score),[15],-1.68
same,glycan array binding signal (z-score),[16],-0.619
same,glycan array binding signal (z-score),[17],-0.194
same,glycan array binding signal (z-score),[18],-0.172
same,glycan array binding signal (z-score),[19],0.247
same,glycan array binding signal (z-score),[20],-1.07
same,glycan array binding signal (z-score),[21],-0.516
same,glycan array binding signal (z-score),[22],-0.142

# Already shown: an excerpt of the list.
binder,measurement,setting,value
B1,glycan array binding signal (z-score),[3],0.39
same,glycan array binding signal (z-score),Fuc(a1-2)Gal(b1-3)GlcNAc,-0.59
